For test [1], the target named is T1, short fragment of Cep192 (aa 1501–1860), Flag-tagged (human) (UniProt Q8TEP8).
T1 sequence: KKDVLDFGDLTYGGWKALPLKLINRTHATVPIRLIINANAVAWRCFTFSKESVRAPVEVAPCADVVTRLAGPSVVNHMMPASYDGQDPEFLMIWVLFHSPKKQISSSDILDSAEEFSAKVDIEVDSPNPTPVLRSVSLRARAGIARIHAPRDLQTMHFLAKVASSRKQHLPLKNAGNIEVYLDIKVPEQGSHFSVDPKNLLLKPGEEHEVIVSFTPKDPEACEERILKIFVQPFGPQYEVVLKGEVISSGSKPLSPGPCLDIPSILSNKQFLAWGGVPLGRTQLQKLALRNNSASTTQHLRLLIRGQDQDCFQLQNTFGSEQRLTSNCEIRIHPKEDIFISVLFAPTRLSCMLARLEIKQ
The experiment in a line: co-IP; U2OS cells transfected with Flag-Cep192 full length or deletion mutants for 24 h; Flag M2 agarose, 2 h or overnight at 4 °C; lysis buffer 20 mM Tris/HCl pH 7.5, 50 mM NaCl, 1% TritonX-100, 5 mM EGTA, 1 mM DTT, 2 mM MgCl2; blot for endogenous Cep295; the full-length result was also obtained in 293T cells.

Amino acid sequences for entries named in this document (tags omitted).
UniProt Q9C0D2: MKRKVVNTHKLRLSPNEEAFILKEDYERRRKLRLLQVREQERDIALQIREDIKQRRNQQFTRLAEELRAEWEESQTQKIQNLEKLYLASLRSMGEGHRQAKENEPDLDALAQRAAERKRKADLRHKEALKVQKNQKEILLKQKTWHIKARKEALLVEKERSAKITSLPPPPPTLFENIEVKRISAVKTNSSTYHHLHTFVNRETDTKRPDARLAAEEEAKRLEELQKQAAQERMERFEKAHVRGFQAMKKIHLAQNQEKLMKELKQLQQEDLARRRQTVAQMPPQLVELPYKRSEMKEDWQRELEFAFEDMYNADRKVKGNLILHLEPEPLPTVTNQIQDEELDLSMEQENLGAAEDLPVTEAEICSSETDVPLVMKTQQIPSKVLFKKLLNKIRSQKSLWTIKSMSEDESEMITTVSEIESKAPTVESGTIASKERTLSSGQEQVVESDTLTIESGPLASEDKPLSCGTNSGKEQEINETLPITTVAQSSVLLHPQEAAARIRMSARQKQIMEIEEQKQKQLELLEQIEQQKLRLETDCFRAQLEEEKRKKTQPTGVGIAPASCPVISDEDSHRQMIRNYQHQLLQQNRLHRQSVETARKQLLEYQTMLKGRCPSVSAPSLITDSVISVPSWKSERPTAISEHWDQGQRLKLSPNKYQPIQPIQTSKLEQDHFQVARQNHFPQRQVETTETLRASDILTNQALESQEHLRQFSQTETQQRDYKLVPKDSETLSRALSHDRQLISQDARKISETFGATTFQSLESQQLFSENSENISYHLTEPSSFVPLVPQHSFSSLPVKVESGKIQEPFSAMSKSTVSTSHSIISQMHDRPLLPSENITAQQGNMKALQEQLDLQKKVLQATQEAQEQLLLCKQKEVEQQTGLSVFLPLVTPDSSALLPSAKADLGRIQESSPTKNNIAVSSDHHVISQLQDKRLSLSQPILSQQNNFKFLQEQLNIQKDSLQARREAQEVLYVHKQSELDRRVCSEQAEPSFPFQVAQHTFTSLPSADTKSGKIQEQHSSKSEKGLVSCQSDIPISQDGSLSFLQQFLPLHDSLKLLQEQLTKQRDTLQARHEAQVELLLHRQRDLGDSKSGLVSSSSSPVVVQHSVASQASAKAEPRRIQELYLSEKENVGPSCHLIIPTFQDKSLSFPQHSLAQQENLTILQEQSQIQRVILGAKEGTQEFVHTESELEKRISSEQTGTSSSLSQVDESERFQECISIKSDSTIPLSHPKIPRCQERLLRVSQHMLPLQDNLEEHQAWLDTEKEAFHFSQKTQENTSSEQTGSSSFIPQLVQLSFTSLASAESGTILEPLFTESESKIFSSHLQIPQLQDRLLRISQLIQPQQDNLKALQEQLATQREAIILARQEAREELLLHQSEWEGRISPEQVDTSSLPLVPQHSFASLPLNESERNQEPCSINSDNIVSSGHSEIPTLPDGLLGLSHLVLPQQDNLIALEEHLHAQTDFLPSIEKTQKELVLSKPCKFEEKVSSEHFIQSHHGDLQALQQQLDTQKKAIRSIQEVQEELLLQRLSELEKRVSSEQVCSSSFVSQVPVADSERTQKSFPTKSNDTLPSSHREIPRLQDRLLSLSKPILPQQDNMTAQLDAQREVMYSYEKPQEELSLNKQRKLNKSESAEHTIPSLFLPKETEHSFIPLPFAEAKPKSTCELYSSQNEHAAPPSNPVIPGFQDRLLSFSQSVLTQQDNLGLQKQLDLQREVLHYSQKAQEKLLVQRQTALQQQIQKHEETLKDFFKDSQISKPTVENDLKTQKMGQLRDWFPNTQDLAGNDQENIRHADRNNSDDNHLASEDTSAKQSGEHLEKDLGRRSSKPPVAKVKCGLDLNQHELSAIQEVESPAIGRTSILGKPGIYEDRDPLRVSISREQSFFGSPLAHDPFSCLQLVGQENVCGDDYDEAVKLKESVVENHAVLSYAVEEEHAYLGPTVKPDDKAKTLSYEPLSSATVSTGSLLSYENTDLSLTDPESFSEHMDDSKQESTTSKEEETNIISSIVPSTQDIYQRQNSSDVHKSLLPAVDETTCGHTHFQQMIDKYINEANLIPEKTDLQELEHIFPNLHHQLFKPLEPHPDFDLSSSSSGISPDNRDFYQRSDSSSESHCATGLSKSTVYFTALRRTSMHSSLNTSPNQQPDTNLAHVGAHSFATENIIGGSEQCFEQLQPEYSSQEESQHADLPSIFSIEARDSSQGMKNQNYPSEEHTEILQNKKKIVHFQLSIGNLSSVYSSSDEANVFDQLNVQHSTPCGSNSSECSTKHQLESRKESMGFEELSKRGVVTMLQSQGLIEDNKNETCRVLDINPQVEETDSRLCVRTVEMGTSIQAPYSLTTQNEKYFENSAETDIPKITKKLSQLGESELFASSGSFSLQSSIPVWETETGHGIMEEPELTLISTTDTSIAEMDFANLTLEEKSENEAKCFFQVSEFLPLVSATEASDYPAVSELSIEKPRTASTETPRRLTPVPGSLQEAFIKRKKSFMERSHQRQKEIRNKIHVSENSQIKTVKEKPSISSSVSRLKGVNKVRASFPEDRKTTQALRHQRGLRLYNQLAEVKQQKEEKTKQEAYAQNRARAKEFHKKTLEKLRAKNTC

In test [2] the target is Flag-tagged full-length Cep192 (centrosomal protein of 192 kDa) (human) (UniProt Q8TEP8). Described as above.

No constants are given. Whether binding was seen depends on the method and setting. Binding seen in cells or lysates may run through a third protein. Some results given as binding are weak or reduced against the parent protein; the word gives no strength. For some assays here: Where a sequence is shown, tags or fusion partners need not be part of it.

As to “endogenous Cep295 (centrosomal protein of 295 kDa) (from UniProt Q9C0D2 1-2601)”, the binding entry in test [1] and in test [2] was “binds” each time.
